Our source for the binding signal values is publication PMC7819943, “Rice protein-binding microarrays: a tool to detect cis-acting elements near promoter regions in rice”.

Chains of the proteins cited; added tags and fusions are not shown.
UniProt Q0JBA9, entry or part of it: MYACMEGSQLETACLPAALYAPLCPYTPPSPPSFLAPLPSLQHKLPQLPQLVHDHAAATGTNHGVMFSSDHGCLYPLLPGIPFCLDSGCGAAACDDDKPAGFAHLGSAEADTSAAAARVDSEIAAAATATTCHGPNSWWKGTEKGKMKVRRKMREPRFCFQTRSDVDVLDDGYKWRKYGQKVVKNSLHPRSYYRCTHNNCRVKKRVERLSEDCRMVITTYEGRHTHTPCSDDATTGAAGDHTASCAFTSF

The list shows a part of the results.

For the assay, the target named is OsWRKY34 (Oryza sativa, UniProt Q0JBA9 1-250). Description: protein-binding microarray (RPBM); PBS, 2% BSA, 51.3 ng/ul salmon testes DNA, 50 uM zinc acetate, 200 nM TF, 25 C, 1 h; high values mean tight binding. To be noted: protein: recombinant; tags: N-terminal polyhistidine and DsRed monomer fusion (pET32a); label: CyDye5-dUTP incorporated in the synthesized complementary strand; 3' TTTTT single-stranded linker to array surface; dsDNA, one strand shown. The method in brief: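 In PBS with 2% BSA, salmon testes DNA and 50 µM zinc acetate, 200 nM protein was incubated on a custom Agilent array at 25 °C for 1 h and then washed off. The array had been made double-stranded by primer extension with Cy5-dUTP and blocked with 2% BSA. The proteins were transcription factors fused N-terminally to polyhistidine and DsRed, expressed in E. coli BL21-CodonPlus and purified on Ni–NTA. The binding signal is per-feature fluorescence intensity (arbitrary units) from an Axon 4000B scanner.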
In the case of “GACATTACGGGCCCACAAGTACGCGTCCCCACCAGCCATACGGAGTCACCTAGTGCAG”, the binding signal is 8490 fluorescence intensity (a.u.).

Regarding “TATGCATCACCTCGTAATCCACAACTGACTTACCCTTTCTCGGAGTCACCTAGTGCAG”, the binding signal is 12300 fluorescence intensity (a.u.).

In the case of “TTTTAGTCTAACTGGTATGCGGGCCCCACATTTATTTTTTCGGAGTCACCTAGTGCAG”, the binding signal was 9210 fluorescence intensity (a.u.).

Consider “ATTTCGCATCGGTTTCTTCGTCAACTGATCCAATTAATTCCGGAGTCACCTAGTGCAG”, for which the binding signal is 8710 fluorescence intensity (a.u.).

As to “ACCCTTGTTCATTCCTCCTCGCCTCGCCTCGCATCTCGGCCGGAGTCACCTAGTGCAG”, the binding signal is 8690 fluorescence intensity (a.u.).

In the case of “CGTTTGGCCATTGTTCTCATTCAAAATTTTATACAAATATCGGAGTCACCTAGTGCAG”, the binding signal was 8980 fluorescence intensity (a.u.).

“TCATACCGACTTCCCTTACTTCCACTTTAACATTTCTAGACGGAGTCACCTAGTGCAG”: the binding signal is 8290 fluorescence intensity (a.u.).

In the case of “TCTCACCTCTCACTTCGACTTCTCGTCGCTGGCCGCCTCTCGGAGTCACCTAGTGCAG”, the binding signal is 10100 fluorescence intensity (a.u.).

Regarding “GCTTCCCTTTCACTGCTCAAATGGCGTTTTGCCGCCCCACCGGAGTCACCTAGTGCAG”, the binding signal was 9430 fluorescence intensity (a.u.).

For the sequence “GTTTTTCCTATTCCTACGTTTTCTCAATCCTGCGATTCAACGGAGTCACCTAGTGCAG”, the binding signal is 9150 fluorescence intensity (a.u.).

Consider “TTTTTCCTTCTTATTCTGTTTCTGGTTGCTTTCTCACTCTCGGAGTCACCTAGTGCAG”, for which the binding signal was 15700 fluorescence intensity (a.u.).

Regarding “CCGCCGCGTCGCGACGTCGACGGCGTTCCCGGCCGCCACCCGGAGTCACCTAGTGCAG”, the binding signal was 8650 fluorescence intensity (a.u.).

For the sequence “ATTGACGGTGATGAGGTATTCAACATTTTTCTTGTCCTTTCGGAGTCACCTAGTGCAG”, the binding signal is 9970 fluorescence intensity (a.u.).

On to “GTATCTGAAGTACCTTGCCTTTGTTATAGCGGGGAAAATACGGAGTCACCTAGTGCAG”, for which the binding signal was 9600 fluorescence intensity (a.u.).

For the sequence “TCGGAAATTGAGTTCGTTCCTGGTTCTCACACTGCTCAAACGGAGTCACCTAGTGCAG”, the binding signal is 9190 fluorescence intensity (a.u.).

Regarding “CCCTCTTCTTCGCCTTTGCTTCATGTTTCCGAAAAAGCGACGGAGTCACCTAGTGCAG”, the binding signal is 10400 fluorescence intensity (a.u.).

For “GTACAGCATAATTTAACCCAACACACACATCCTCCAGGTCCGGAGTCACCTAGTGCAG”, the binding signal is 8960 fluorescence intensity (a.u.).

As for “GTGATGGTTCACTGCTTGTTGCTGGGTTTCGGGTAGGTGACGGAGTCACCTAGTGCAG”, the binding signal is 15500 fluorescence intensity (a.u.).

As for “ATACACGCTCTCACCTCATCTCATCTCGTCGCCATTGACACGGAGTCACCTAGTGCAG”, the binding signal is 9790 fluorescence intensity (a.u.).

Turning to “GGCCTATATATAACCATTGCTGTTGCCCTAAGAATGAATGCGGAGTCACCTAGTGCAG”, the binding signal is 9380 fluorescence intensity (a.u.).

“CCCTCCCGATTTTTCACCTTTTGAAAAACTTATTATACATCGGAGTCACCTAGTGCAG”: the binding signal was 8850 fluorescence intensity (a.u.).

Turning to “GGGGAGGGGAGGGAAGACCCGGGATTAGGCGAGGAGAGGGCGGAGTCACCTAGTGCAG”, the binding signal is 9660 fluorescence intensity (a.u.).

Regarding “CTCCACAGTGTATTCTACCCGCTACTTGCATCAACTAATTCGGAGTCACCTAGTGCAG”, the binding signal is 9110 fluorescence intensity (a.u.).

“TGCCTCTTTTTTTTTTTCTCAACACGTTACAGTTTCCTACCGGAGTCACCTAGTGCAG”: the binding signal is 10500 fluorescence intensity (a.u.).

In the case of “TCAGTCCTCGGCCACCTCCCTCACTTGTCCAACCTTGTCTCGGAGTCACCTAGTGCAG”, the binding signal was 13100 fluorescence intensity (a.u.).

Take “AGTACTGCTTCATCTAGCTCTCTCTAGTAGCTAGCTCTATCGGAGTCACCTAGTGCAG”: the binding signal is 8800 fluorescence intensity (a.u.).

Consider “ACCCATGATATATTAACTCTGTAGCTCACTTTTTTCTCTCCGGAGTCACCTAGTGCAG”, for which the binding signal was 10700 fluorescence intensity (a.u.).

On to “TTTCTATGGTTATGTCTAATTCACCCTTATATTTATTTTTCGGAGTCACCTAGTGCAG”, for which the binding signal was 10200 fluorescence intensity (a.u.).

Turning to “CATTTGTCCTGTTAACTTAACCATTGATATTTTCTTTTTACGGAGTCACCTAGTGCAG”, the binding signal is 11700 fluorescence intensity (a.u.).

On to “TGTGTATTTTGGTTTGCTTTGTGTATTTTGGACCCAAAAACGGAGTCACCTAGTGCAG”, for which the binding signal is 10500 fluorescence intensity (a.u.).

For the sequence “GATTTCCTTTTGATTTGTGGGGTTGATTTAATTCTGTATCCGGAGTCACCTAGTGCAG”, the binding signal is 15700 fluorescence intensity (a.u.).

Consider “TATCATTATGTCCGAACGGTATACCTTCTTGTATCATTTCCGGAGTCACCTAGTGCAG”, for which the binding signal was 11200 fluorescence intensity (a.u.).

Take “GTCTGCTGTCCATTGACCGGTTGACCGCCCTGACTGCCCCCGGAGTCACCTAGTGCAG”: the binding signal was 9770 fluorescence intensity (a.u.).

For the sequence “GTTAGTTGCGTTTGCATGCATGAGTGACACTACATACGCCCGGAGTCACCTAGTGCAG”, the binding signal was 8040 fluorescence intensity (a.u.).

“GCCGACTAGTCAACCATCAGGTCAACCCAAAGCATTTCCCCGGAGTCACCTAGTGCAG”: the binding signal was 8150 fluorescence intensity (a.u.).

Take “AAGCTTTGTCACTGGCTCAACATGACGATATATCGGTTAACGGAGTCACCTAGTGCAG”: the binding signal is 8130 fluorescence intensity (a.u.).

Consider “TCCTCACGCTTTCTCGGTTCCATTTGGCTTTATTAATAATCGGAGTCACCTAGTGCAG”, for which the binding signal was 11000 fluorescence intensity (a.u.).

Regarding “GTATTCTAATTCTTTTTAACTTTGTATTGGTACGTGTGAACGGAGTCACCTAGTGCAG”, the binding signal is 8320 fluorescence intensity (a.u.).

Take “GATGCGGGTGAGGTGCCGCGCTGTGGGGAGAGAGGGTGGGCGGAGTCACCTAGTGCAG”: the binding signal is 8560 fluorescence intensity (a.u.).

Take “TCCCTCTGCGACTCTGCCAGTGCATTGCCTATCTCTATATCGGAGTCACCTAGTGCAG”: the binding signal was 12300 fluorescence intensity (a.u.).

Take “ACTAACTCTTTCTTACCAGTAAATTCTTGGGGTAATTGTACGGAGTCACCTAGTGCAG”: the binding signal is 8910 fluorescence intensity (a.u.).

In the case of “TTTTCTTCTCACTTCACTTACATGTGGGACTCACATATTACGGAGTCACCTAGTGCAG”, the binding signal was 8360 fluorescence intensity (a.u.).
